Experimental data taken from PMC8551653, “Bisphenol A derivatives act as novel coactivator-binding inhibitors for estrogen receptor β” (The Journal of Biological Chemistry, 2021).
Results are given in words; binding and its absence hold for the method and conditions named. Some entries that bind do so weakly or less than the wild type.

Chains of the proteins cited; added tags and fusions are not shown. Lines headed by an entry give the natural chain unless they say otherwise; changes in a name come on top. A line that says so, or that is headed by a name, gives the form on record, which may keep a tag or linker.
GST-ERβ(W335A)-LBD (Q92731, form named): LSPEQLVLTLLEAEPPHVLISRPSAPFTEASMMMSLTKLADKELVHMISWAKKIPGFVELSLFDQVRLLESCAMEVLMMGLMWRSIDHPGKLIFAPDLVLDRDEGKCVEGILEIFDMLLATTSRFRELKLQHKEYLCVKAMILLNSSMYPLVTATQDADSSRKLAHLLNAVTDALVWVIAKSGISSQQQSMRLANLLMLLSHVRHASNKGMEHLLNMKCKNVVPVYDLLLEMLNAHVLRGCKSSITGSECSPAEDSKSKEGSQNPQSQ

Molecular target: GST-ERβ(W335A)-LBD (human) (UniProt Q92731)
Experiment: SPR; Biacore T100; SRC1 peptide on ERβ(W335A); ligand condition not told in the text (Fig. S5); both purified

- binding: binds weakly
B1: SRC1 peptide (amino acids 685–697) derived from human nuclear receptor coactivator 1 (peptide)
peptide: ERHKILHRLLQEG
notes: source: synthetic peptide (ABI 433A, solid phase, Fmoc chemistry)
